Measured values taken from patent US11395847B2 (Zealand Pharma A/S, priority 2016, dated 2022).
*1 amine or outer side, *2 acyl side, *3 side chain or, on linkers, in order; H or OH if unused. Side-chain parts run from the residue outwards. [ ]: non-standard residue; d: D form. The star is where a group is joined. C18 diacid = O=C(O)CCCCCCCCCCCCCCCCC(=O)*; γGlu = O=C(O)[C@H](CCC(=O)[*:2])N[*:1]; Aib = CC(C)(N)C(=O)O

Columns and labels:
[1] = general procedure: Fmoc solid-phase peptide synthesis; TENTAGEL S PHB Asp(tBu)Fmoc; conditions: whole synthesis, 0.23 mmol/g
[2] = general procedure: Fmoc solid-phase peptide synthesis; TentaGel (TentaGel S PHB Asp(tBu)Fmoc, 0.23 mmol/g); conditions: whole synthesis; for final HPLC purity: HPLC and MS; for crude purity (method not given): analytical HPLC and MS

Row | Substance | crude mass ([1]; scale 1.15 g) [mg] | final HPLC purity [2] [%] | crude purity (method not given) [2] | crude mass ([1]; scale 1.20 g) [mg]
1 | H-H[Aib]EGTFSSELATILDK([γGlu-C18 diacid])EAARDFIAWLIEHKITD-OH | 1100 | 91 | ˜40% | –
2 | H-H[Aib]EGTFSSELATILDK([γGlu-C18 diacid])KAARDFIAWLIEHKITD-OH | – | 91 | ˜35% | 900
